Laboratory results taken from paper PMC11362597.
These are yes or no findings as the source states them, for the method shown. Binding seen in cells or lysates may run through a third protein. Some binding calls cover weakened binding; strength is not graded here.

By UniProt entry, the sequences of proteins in these tests, tags left out.
UniProt P42331: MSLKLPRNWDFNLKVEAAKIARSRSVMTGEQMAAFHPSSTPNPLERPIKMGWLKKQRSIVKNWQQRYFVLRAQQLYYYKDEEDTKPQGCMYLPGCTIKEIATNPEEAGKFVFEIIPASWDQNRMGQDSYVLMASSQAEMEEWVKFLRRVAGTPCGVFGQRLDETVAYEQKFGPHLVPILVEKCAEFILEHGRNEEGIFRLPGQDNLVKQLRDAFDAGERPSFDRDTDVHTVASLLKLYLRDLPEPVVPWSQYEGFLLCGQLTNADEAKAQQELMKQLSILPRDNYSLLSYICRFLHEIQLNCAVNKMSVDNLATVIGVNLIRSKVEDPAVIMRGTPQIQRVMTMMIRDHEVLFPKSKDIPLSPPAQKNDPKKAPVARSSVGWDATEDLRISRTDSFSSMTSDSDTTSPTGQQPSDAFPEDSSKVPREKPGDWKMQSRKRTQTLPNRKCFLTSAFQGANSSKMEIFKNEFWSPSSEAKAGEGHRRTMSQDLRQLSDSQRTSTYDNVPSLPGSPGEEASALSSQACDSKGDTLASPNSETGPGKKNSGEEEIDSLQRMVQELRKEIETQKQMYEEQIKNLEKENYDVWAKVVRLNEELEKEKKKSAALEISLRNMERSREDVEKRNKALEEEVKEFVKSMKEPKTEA
UniProt P84095: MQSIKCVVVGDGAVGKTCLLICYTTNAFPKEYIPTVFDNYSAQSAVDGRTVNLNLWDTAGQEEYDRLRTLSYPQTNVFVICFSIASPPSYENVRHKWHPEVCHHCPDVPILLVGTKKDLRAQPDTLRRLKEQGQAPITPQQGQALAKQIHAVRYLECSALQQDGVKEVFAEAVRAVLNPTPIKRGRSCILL

Experiments:
[1] = biological target: GST-fused recombinant ARHGAP25 (human) (UniProt P42331); test: pull-down; eluates of the GST-ARHGAP25 and GST pull-downs from intact neutrophil lysate, immunoblotted; only the target purified
[2] = biological target: GST-fused recombinant ARHGAP25 (human) (UniProt P42331); test: pull-down; eluates of the GST-ARHGAP25 pull-downs from GTPγS- or GDPβS-loaded neutrophil lysate, immunoblotted; only the target purified

RHOG (from UniProt P84095 1-191)
binding [1]: binds
binding [2]: binds
